# PubChem BioAssay AID1224830 | NIAID | 2016
# Purpose: 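Regulators of TLR4 signalling towards TNF-alpha in macrophage-like cells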 (primary screen)
# Cells: human THP-1 monocytic leukaemia cells, TNF dual-luciferase reporter clone, PMA-differentiated to macrophage-like cells
# Reagent: siRNA pool against human genes, 50 nM
# Duration: LPS for 4 h, given about 3 days after siRNA transfection
# Challenge: bacterial LPS (TLR4 ligand), 10 ng/ml
# Measured: 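Ratio of firefly to renilla light, scaled to the plate median and expressed as a robust z-score per replicate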
# Scale: TNF reporter robust z-score: higher = stronger TNF reporter response to LPS
# Call rule: 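a well is active when its z-score exceeds 2.8 or falls below -1.5; control wells carry no call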
# The deposit covers about 18,000 reagents; shown is a part drawn at random. Of all reagents, about 2,900 (16%) are marked active. 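Calls are made per well; low scores hint the gene aids the LPS response, high scores that it dampens it.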 A number with no mark means an inactive call. Repeated entries: four replicate wells of each siRNA pool. No sequences are given here.
Gene,TNF reporter robust z-score
ACD,1.13
ACD,0.24
ACD,-0.83
ACD,1.14
GPR37,-0.68
GPR37,1.38
GPR37,1.03
GPR37,-0.4
REV3L,-1.06
REV3L,-0.92
REV3L,0.57
SS18L1,-0.1
SS18L1,-0.44
SS18L1,0.04
SS18L1,-0.72
DDX20,-0.57
DDX20,-0.2
DDX20,0.01
DDX20,-0.11
YWHAH,-0.56
YWHAH,-0.91
YWHAH,-0.86
YWHAH,-0.9
MAJIN,-0.65
MAJIN,-1.06
MAJIN,-0.69
MAJIN,-0.52
DCAF11,-0.17
DCAF11,-0.01
DCAF11,0.03
DCAF11,1.12
VPS33B,0.06
VPS33B,0.59
VPS33B,0.12
VPS33B,0.24
C1S,-0.46
C1S,-0.03
C1S,0.18
C1S,0.17
MASTL,-0.79
MASTL,-0.85
MASTL,-1.5
MASTL,-0.82
GUCA1C,0.61
GUCA1C,-0.36
GUCA1C,-0.51
GUCA1C,-0.59
ADAMTS9,1.24
ADAMTS9,0.13
ADAMTS9,0.52
ADAMTS9,2.12
PRXL2C,0.86
PRXL2C,0.81
PRXL2C,-0.16
PRXL2C,1.04
CTSC,-0.71
CTSC,0.18
CTSC,-0.25
CTSC,1.01
MED12,-0.45
MED12,1.67
MED12,1.7
MED12,2.16
RAB11FIP2,-0.59
RAB11FIP2,-0.84
RAB11FIP2,-0.95
ST6GALNAC5,-0.7
ST6GALNAC5,-0.26
ST6GALNAC5,-0.44
ST6GALNAC5,-0.5
HDAC4,0.97
HDAC4,-0.44
HDAC4,-0.87
HDAC4,-1.05
JUND,0.05
JUND,-0.99
JUND,0.56
JUND,-0.83
INSL5,-0.07
INSL5,-0.14
INSL5,-0.5
INSL5,-0.08

More reagents follow.
Gene,TNF reporter robust z-score
CTSA,-0.83
CTSA,-0.17
CTSA,-0.73
CTSA,3.44 (active)
RHOT1,-0.33
RHOT1,0.22
RHOT1,18.5 (active)
RHOT1,1.89
SUN1,-1.39
SUN1,-1.11
SUN1,-1.51 (active)
SUN1,-0.83
HMGB3,0.43
HMGB3,0.48
HMGB3,1.39
HMGB3,1.78
TNIP3,-0.1
TNIP3,0.54
TNIP3,0.47
TNIP3,-0.02
GRM6,-0.91
GRM6,-0.11
GRM6,1.01
GRM6,-0.15
LST1,-0.37
LST1,0.56
LST1,0.33
LST1,1.28
RNF212,0.29
RNF212,0.62
RNF212,1.67
RNF212,0.09
B3GALT5,-0.38
B3GALT5,0.09
B3GALT5,-0.28
B3GALT5,0.44
HAND1,-0.2
HAND1,-0.03
HAND1,-0.11
HAND1,-0.26
FRMD4A,1.23
FRMD4A,0.82
FRMD4A,1.08
FRMD4A,1.31
COL6A3,1.1
COL6A3,-0.17
COL6A3,-0.36
COL6A3,0.1
RPP30,0
RPP30,0.06
RPP30,-0.44
RPP30,0.18
ACKR1,-0.67
ACKR1,0.55
ACKR1,-0.52
ACKR1,1.02
IL1RAP,0.04
IL1RAP,0.86
IL1RAP,-0.18
IL1RAP,0.1
